# PubChem BioAssay AID493246 – Drosophila RNAi Screening Center, 2011
# Test: 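Identify essential fly genes by loss of cell viability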 (primary screen)
# Cells: Drosophila Kc and S2R+ cells
# Knock-down reagent: long dsRNA against Drosophila genes
# Measured: 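Cell number per well after knock-down, printed as raw plate values; calls were based on per-plate z-scores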
# Scale: Kc cell number and S2R+ cell number: higher = more cells remaining
# Hit rule: 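Counted as a hit if cell number falls by a z-score of at least 3 within its plate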
# The screen tested about 21,000 reagents; below is an unselected part of those that have a named target and a result. In the full data, 429 (2%) got an active call. 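Values are raw and not normalised between plates; calls rest on per-plate z-scores that were not deposited.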 Reagents against one gene are numbered here. No sequences are given here. Not given: the amount of reagent, the time to read-out.
gene,reagent no.,"Kc cell number, rep 1","Kc cell number, rep 2","S2R+ cell number, rep 1","S2R+ cell number, rep 2",outcome
RpS11 (Ribosomal protein S11),1,1.08e6,1.17e6,8.78e5,9.58e5,inactive
Usp32 (Ubiquitin specific protease 32),1,1.36e6,1.68e6,1.25e6,1.34e6,inactive
CG3630,1,5.14e5,,7.59e5,,inactive
CG10654,1,1.48e6,1.47e6,1.23e6,1.30e6,inactive
Rcd2 (Reduction in Cnn dots 2),1,1.38e6,1.61e6,1.01e6,1.22e6,inactive
Rcc1 (Regulator of chromosome condensation 1),1,1.34e6,1.42e6,1.20e6,1.11e6,inactive
CG14182,1,1.37e6,1.31e6,1.35e6,1.40e6,inactive
CG3594,1,1.36e6,1.42e6,9.17e5,8.67e5,inactive
CG9877,1,1.91e6,1.97e6,1.33e6,1.33e6,inactive
"Dcps (Decapping enzyme, scavenger)",1,1.57e6,1.64e6,1.20e6,1.28e6,inactive
yip3 (yippee interacting protein 3),1,1.60e6,1.61e6,1.22e6,1.39e6,inactive
inaF-A,1,1.54e6,1.44e6,1.07e6,1.15e6,inactive
witty (without maturity),1,1.59e6,1.66e6,1.19e6,1.37e6,inactive
CycK (Cyclin K),1,1.40e6,1.51e6,1.07e6,1.14e6,inactive
Atg7 (Autophagy-related 7),1,5.28e5,,7.36e5,,inactive
Atg7 (Autophagy-related 7),2,1.50e6,1.56e6,1.25e6,1.37e6,inactive
CG15042,1,1.54e6,1.51e6,1.17e6,1.23e6,inactive
Smr (Smrter),1,1.84e5,,4.56e5,,active
Smr (Smrter),2,7.53e5,8.14e5,4.69e5,5.53e5,active
snf (sans fille),1,5.24e5,,6.66e5,,inactive
mnb (minibrain),1,1.47e6,1.44e6,7.39e5,8.11e5,inactive
mnb (minibrain),2,1.51e6,1.55e6,1.00e6,1.04e6,inactive
CG4537,1,1.72e6,1.64e6,1.26e6,1.42e6,inactive
CG10973,1,1.43e6,1.47e6,1.35e6,1.29e6,inactive

An excerpt from above, showing only “S2R+ cell number, rep 2”.
mnb (minibrain) #1: 8.11e5
mnb (minibrain) #2: 1.04e6
CG4537: 1.42e6
